Patent publication US20030108920A1
No constants are given. Whether binding was seen depends on the method and setting. For part of these data: In cells and extracts the contact can be indirect. Some binding calls cover weakened binding; strength is not graded here.

Sequences of proteins named here, by UniProt entry; tags and fusion partners are left off. Residues count along the entry.
UniProt P18065, residues 36-325: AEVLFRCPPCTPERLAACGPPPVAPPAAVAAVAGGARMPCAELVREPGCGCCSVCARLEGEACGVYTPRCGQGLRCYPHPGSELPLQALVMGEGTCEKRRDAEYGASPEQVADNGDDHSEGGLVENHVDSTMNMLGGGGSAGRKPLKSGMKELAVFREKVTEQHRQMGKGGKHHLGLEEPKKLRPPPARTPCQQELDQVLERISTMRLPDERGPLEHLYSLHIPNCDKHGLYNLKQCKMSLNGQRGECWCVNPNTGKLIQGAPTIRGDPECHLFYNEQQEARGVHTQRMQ

Experiments:
[1] = molecular target: Insulin-Like Growth Factor Binding Protein 2 (IGFBP2) (UniProt P18065); assay: yeast two-hybrid screen of a human fetal brain cDNA library (growth on Ade His media, blue with X-gal)
[2] = molecular target: Insulin-Like Growth Factor Binding Protein 2 (IGFBP2) (UniProt P18065); assay: co-immunoprecipitation in HEK 293 cells
[3] = molecular target: Insulin-Like Growth Factor Binding Protein 2 (IGFBP2) (UniProt P18065); assay: yeast two-hybrid screen

Measured: binding

B1: clone 86 protein (protein)
chain: ACRGDLRDVARSGVASLPPAKCQHQESLGRPRPHSAPSLGTSSLRDPEPSGRLGDPGPQEAQTPRSILAQQSKLSKPRVTFSEESAVPERSWRLRPYLGYDWIAGSLDTSSSITSQPEAFFSKLQEFRETNKEECICSHPEPQLPGLRESSGSGVEEDHECVYCYRVNRRLFPVPVDPGTPCRLCRTPRDQQGPGTLAQPAHVRVSIPLSILEPPHRYHIHRRKSFDASDTLALPRHCLLGWDIFPPKSEKSSAPRNLDLWSSVSAEAQHQKLSGTSSPFHPGPALQP
binds: all assays above
